Test results taken from paper doi:10.1101/2021.03.17.435124.
No constants are given. Whether binding was seen depends on the method and setting. Binding seen in cells or lysates may run through a third protein. These calls come from enrichment with a bait or labelling near it, and not all partners need be listed. For some of these results: Sequences can lack the tags named with a protein.

Sequences of proteins named here, by UniProt entry; tags and fusion partners are left off.
UniProt Q14690, whole entry: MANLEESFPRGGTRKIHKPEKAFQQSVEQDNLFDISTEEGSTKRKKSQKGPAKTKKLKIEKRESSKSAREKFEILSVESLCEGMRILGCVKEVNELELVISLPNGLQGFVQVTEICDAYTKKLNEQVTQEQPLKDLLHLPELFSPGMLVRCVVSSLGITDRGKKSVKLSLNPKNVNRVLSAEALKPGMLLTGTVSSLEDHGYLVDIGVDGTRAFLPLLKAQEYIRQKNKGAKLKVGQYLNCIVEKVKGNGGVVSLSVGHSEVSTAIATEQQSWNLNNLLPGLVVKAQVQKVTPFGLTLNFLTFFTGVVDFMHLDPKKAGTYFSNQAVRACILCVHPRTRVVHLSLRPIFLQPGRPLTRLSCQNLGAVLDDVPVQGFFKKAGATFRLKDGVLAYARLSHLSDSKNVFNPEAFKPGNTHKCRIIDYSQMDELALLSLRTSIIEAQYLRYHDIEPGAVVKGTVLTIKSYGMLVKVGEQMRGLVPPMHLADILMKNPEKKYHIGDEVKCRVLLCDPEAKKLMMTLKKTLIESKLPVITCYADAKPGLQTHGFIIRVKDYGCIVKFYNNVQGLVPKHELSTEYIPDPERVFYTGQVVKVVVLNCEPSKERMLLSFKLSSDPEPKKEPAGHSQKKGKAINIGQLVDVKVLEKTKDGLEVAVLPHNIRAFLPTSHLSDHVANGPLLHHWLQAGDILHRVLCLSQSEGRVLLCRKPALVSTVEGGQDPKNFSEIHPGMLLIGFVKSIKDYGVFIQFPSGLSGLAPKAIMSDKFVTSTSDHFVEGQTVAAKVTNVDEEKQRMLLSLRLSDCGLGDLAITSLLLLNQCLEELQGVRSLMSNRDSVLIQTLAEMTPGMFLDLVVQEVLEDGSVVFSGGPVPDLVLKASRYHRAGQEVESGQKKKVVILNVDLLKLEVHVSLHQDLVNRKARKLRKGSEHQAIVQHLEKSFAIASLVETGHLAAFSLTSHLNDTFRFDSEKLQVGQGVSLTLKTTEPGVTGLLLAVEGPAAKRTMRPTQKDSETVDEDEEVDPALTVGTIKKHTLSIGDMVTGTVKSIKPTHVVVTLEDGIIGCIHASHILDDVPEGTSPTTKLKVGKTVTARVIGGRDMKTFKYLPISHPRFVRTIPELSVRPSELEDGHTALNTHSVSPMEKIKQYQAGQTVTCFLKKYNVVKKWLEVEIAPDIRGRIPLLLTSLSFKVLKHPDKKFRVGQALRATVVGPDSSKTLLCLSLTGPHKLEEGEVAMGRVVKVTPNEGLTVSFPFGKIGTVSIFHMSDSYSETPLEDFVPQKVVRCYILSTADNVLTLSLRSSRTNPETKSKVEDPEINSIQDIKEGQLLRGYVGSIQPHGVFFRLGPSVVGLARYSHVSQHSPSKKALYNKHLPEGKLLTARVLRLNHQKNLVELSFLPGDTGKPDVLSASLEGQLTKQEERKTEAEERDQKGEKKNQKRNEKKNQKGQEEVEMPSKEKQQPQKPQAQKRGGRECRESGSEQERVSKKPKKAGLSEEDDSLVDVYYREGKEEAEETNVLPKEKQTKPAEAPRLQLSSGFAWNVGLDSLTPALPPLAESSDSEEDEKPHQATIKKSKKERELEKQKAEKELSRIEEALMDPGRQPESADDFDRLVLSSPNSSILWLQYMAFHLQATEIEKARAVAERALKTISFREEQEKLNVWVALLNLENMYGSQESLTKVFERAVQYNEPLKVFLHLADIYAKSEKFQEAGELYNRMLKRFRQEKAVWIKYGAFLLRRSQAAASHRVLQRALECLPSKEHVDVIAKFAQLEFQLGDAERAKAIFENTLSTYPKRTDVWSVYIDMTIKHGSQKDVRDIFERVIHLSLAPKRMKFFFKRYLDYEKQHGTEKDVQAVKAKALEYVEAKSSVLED

T1: 3xFLAG-RRP1B (UniProt Q14684)
T1 sequence: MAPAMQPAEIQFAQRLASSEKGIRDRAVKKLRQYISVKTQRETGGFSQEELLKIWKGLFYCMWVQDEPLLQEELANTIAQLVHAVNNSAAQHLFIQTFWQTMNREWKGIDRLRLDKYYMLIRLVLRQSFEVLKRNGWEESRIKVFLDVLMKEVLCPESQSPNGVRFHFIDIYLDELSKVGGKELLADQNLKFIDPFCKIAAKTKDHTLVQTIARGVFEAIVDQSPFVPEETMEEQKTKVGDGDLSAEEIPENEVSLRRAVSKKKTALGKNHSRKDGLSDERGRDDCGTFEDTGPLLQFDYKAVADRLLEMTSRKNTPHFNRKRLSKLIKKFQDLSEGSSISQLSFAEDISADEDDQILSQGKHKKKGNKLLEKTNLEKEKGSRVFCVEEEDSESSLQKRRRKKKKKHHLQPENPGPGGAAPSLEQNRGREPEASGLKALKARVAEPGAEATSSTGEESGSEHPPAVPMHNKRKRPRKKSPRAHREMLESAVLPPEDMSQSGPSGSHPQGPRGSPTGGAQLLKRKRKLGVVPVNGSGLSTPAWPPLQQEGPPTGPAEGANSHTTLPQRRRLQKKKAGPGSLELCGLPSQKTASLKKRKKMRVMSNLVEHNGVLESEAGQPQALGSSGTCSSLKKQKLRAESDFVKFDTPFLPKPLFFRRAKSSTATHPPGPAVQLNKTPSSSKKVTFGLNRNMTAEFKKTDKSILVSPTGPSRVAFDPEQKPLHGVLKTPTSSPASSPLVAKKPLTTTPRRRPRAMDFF


What was measured:
[1] = biological target: 3xFLAG-PDCD11 (UniProt Q14690); test: affinity purification with mass spectrometry
[2] = biological target: T1, 3xFLAG-RRP1B; test: affinity purification with mass spectrometry

Row | Molecule | binding [1] | binding [2]
1 | helicase DDX21 (from UniProt Q9NR30 1-783) | binds | binds
2 | cytokine MDK (protein, UniProt P21741 21-143) VAKKKDKVKKGGPGSECAEWAWGPCTPSSKDCGVGFREGTCGAQTQRIRCRVPCNWKKEFGADCKYKFENWGACDGGTGTKVRQGTLKKARYNAQCQETIRVTKPCTPKTKAKAKAKKGKGKD | binds | binds
